# Results taken from US12129279B2, “Antimicrobial peptides and use of the same for treating microbial infections” (TZU CHI UNIVERSITY, priority 2022, dated 2024).
# At least one peptide structure holds a part that was inferred or is arguable (an end, a ring closure or a residue). No end group written: not given here.
# Legend:
# [1] = test system: MDRAB (multidrug-resistant Acinetobacter baumannii); assay type: cell-based; settings: Gram-negative MDRAB, 2 hours at 37° C. in PBS, colony count; read-out: IC50 against MDRAB
# Experimental: The antimicrobial activities of dK1, dK2, dK3, dK4 and dK5 were determined by bactericidal assays on laboratory strains of MRSA (methicillin-resistant Staphylococcus aureus) and MDRAB (multidrug-resistant Acinetobacter baumannii).
# The bacteria were inoculated in Luria broth (LB) solid medium (BioShop Canada Inc., Ontario, Canada) (Focus Bioscience, Murrarrie, Australia). Single colonies were collected and inoculated in 8 mL of liquid medium, and the cultures were incubated overnight at 37° C., 200 rpm. On the next day, the bacterial cultures were centrifuged with a centrifuger (KUBOTA2800, KUBOTA, Osakashi, Japan) at 2500 rpm for 5 minutes at room temperature, and the supernatants were discarded. The pellets were mixed and suspended with 1×PBS (phosphate-buffered saline, PBS, pH 7.4) (PROTECH, Taipei, Taiwan). The step was repeated twice to wash the bacterial cells. […]
# In the bactericidal assay, 2700 μL of 1× PBS were mixed with 300 μL 1×10^7 CFU/mL bacteria suspension mentioned as negative control, and each of the solutions of dK1 to dK5 at different concentrations was mixed with 300 μL 1×10^7 CFU/mL bacteria suspension and 2700 μL of 1× PBS. […] After overnight incubation at 37° C., bacterial colonies were counted. Bacterial survival rates of each group were determined as follows. % survival rate=[(Colonies formed from peptide-treated sample)/(Colonies formed from negative control)]×100%
# Huh-7 cells = assay type: cell-based; settings: 2 μM in cell culture medium for four hours
# Experimental: For measuring the cytotoxicity of the antimicrobial peptides dK1, dK2 and dK3, a colorimetric 3-bis-(2-methoxy-4-nitro-5-sulfophenyl)-2H-tetrazolium-5-carboxanilide (XTT) dye reduction assay was employed. The cytotoxicity of the antimicrobial peptides of the invention were tested on Huh-7 and HeLa cells. The culture medium for Huh-7 is Dulbecco's modified eagle medium, DMEM (Gibco™, NY, USA) containing 10% fetal bovine serum (FBS) (Gibco™, NY, USA) 1% non-essential amino acid solution (NEAA) (Biological Industries, Beit HaEmek, Israel) and 1% streptomycin-penicillin solution (Gibco™, NY, USA). The culture medium for HeLa cells is Minimum Essential Medium (MEM) (Gibco™, NY, USA) containing 10% FBS (Gibco™, NY, USA), 1% sodium pyruvate (Gibco™, NY, USA), 1% NEAA (Biological Industries, Beit HaEmek, Israel) and 1% streptomycin-penicillin (Gibco™, NY, USA). […] The absorbance of the samples was measured at the 4th hour, and cell viability calculated to evaluate the cytotoxicity of the antimicrobial peptides. The absorbance of the samples was measured with an ELISA reader (EPOCH™, BioTek instruments, Inc., Winooski, USA) at a wavelength of 475 nm. The absorbance value of the positive control group was regarded as 0% cell viability, and the absorbance value of the negative control group was regarded as 100% cell viability. […]
Sequence,IC50 [1] [nM],Huh-7 cells survived (Huh-7 cells)
IVRRIWRAWARRVRLVARIPAV [dK1],~167,
RPFIVRAWRRAVARRARAILPI [dK3],,about half
